Test results as given in the supplement of paper PMC5949888.
Most values lie at the floor of the assay. Slopes are relative: functional sequences can read slightly below zero.

Tested on: Saccharomyces cerevisiae PS128 hsf1 delta, HSF1(1-493) fusion
Assay: growth estimate (transactivation domain function in HSF1 fusion, heat-shock survival) (a.u. (slope of normalised read count over time)); higher = stronger growth at 37°C, i.e. more transactivation activity
Conditions: library: random library
Procedure: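 Random 60-nt DNA library encoding peptides of up to 20 aa, fused to the C-terminus of yeast HSF1 residues 1-493 (C-terminal TAD deleted) and expressed from the native HSF1 promoter on a CEN plasmid in hsf1-deleted S. cerevisiae PS128. Cells were selected at 37°C on -trp 5-FOA plates for 0, 2, 4, 6 and 8 days and amplicons were sequenced. Growth estimate is the slope of a robust linear fit of total-sum-normalised read counts (normalised to the first time point) over time, using at least 2 replicates. Sequences are classed functional (TAD activity) above a threshold of -0.13, set from stop-codon control sequences.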

Row | Substance | growth estimate
1 | WGATGTFSMIRGSLLSIVIC | < -0.25
2 | QPRSFGSVTWQVGTGGVGGF | < -0.25
3 | CCYGARDI | < -0.25
4 | TQLSQAWGLQSNRYLPARF | < -0.25
5 | LGALGSRVHYGLLSGVKIWI | < -0.25
6 | TVKGSFVE | < -0.25
7 | ACRASKLGLSADSDF | < -0.25
8 | YNPR | < -0.25
9 | RMKSGLAYTQRFK | < -0.25
10 | HPREML | < -0.25
11 | HNFKGTG | < -0.25
12 | ESCI | < -0.25
13 | SSAYVV | < -0.25
14 | RSAVRSIRVTARSYQNRKAE | < -0.25
15 | VADRTNENRSVTYNSVVSWP | < -0.25
16 | LCEPKFFEDF | < -0.25
17 | RDLW | < -0.25
18 | VPNLVWSVTSMGQDGIVLAR | < -0.25
19 | GRFSGAL | < -0.25
20 | RTGQSDRGVFSFLSPCVGST | < -0.25
21 | NECRPR | < -0.25
22 | HLLMILSVLRLNNTANRFAL | < -0.25
23 | TDSLGGFWYRGERVSIPCTA | < -0.25
24 | CPGERGCQLLFSQSPQASGY | < -0.25
25 | QVQEHMLANESTRGSVESAG | < -0.25

Row | Substance | growth estimate
26 | VVSNGRIPSVPASTAYCQSR | < -0.25
27 | RLTIMEESRR | < -0.25
28 | STRCAWTTNESQRAPRGRYP | < -0.25
29 | LEAH | < -0.25
30 | TGMGPGLSCNCDIRRQGLKQ | < -0.25
31 | RRVGGWS | < -0.25
32 | GDTYSRGRTECA | < -0.25
33 | GRGRDS | < -0.25
34 | TRYLLSPSFKVFASSFLS | < -0.25
35 | KRVDTGQR | < -0.25
36 | HDDDGEFQ | < -0.25
37 | QRRFSCI | < -0.25
38 | GGIPIFAAAKLHRGMRAGRG | < -0.25
39 | IGSSIQLRVVAFLC | < -0.25
40 | SDDLSVVYF | < -0.25
41 | TLRIHPIVSV | < -0.25
42 | IFVTVATAGSTGVRCQDGGR | < -0.25
43 | YAHIRRTMR | < -0.25
44 | HASWPLITF | < -0.25
45 | WKSGCQRSC | < -0.25
46 | YLYLI | < -0.25
47 | HNLW | < -0.25
48 | GCSTGLI | -0.248
49 | AGGSTRRYRWCKLCLLLTVI | < -0.25
50 | PCWTSDMSRG | < -0.25

Row | Substance | growth estimate
51 | IPPKVLTSMIAKEDRCPSAG | < -0.25
52 | SRRG | -0.243
53 | GWGNPVA | < -0.25
54 | EARSPSGDGRALCRRE | < -0.25
55 | GRGLEGP | < -0.25
56 | VLTRLIDWKFDIAERLDSCF | < -0.25
57 | SIDVAFSH | < -0.25
58 | PQLNPDSPPN | -0.247
59 | DPGFHSRVVCARAAHGDRSH | < -0.25
60 | SRLSNFLVPRPKAYRAVRYA | < -0.25
61 | VVRCKEKLELGACRGAAWWP | < -0.25
62 | TQRGTGHAPMGWRDYTWYDE | 0.183
63 | NSSY | < -0.25
64 | TIK | < -0.25
65 | RYQGSWRFTRVLAVK | < -0.25
66 | TGGRSYLVTMRGVTRASRQS | < -0.25
67 | DAIVAGAAHNDPDSSLN | < -0.25
68 | DGRDSVARKASRMDGLLLHR | < -0.25
69 | MAVSESVGLAHILCV | < -0.25
70 | ENRHVDGGVDSTSHLLTRMA | < -0.25
71 | RHQGEIACL | < -0.25
72 | AKTGRILWSTSEPWWTQEYG | < -0.25
73 | PGRCLPTRA | < -0.25
74 | TRVPERGLLLWELFICPNHK | < -0.25
75 | GRHAQRRLKSGIAIENKGHP | < -0.25

Row | Substance | growth estimate
76 | LIHLR | < -0.25
77 | TFIIEEVSHVFLEGIRT | < -0.25
78 | DRRRLGPRTASRNRDGLGMT | < -0.25
79 | SLK | < -0.25
80 | VVGDLGLSKRRARHGITITA | < -0.25
81 | FSSSRLQ | -0.242
82 | VMGIR | < -0.25
83 | SQWSGHGRKSVLVPALLPSE | < -0.25
84 | NESVDGGSVVIAGAPSSPNF | < -0.25
85 | RGGTGGLCTHFHRVGGDLDP | < -0.25
86 | SGGPVKHTVGRIDE | < -0.25
87 | CRLSSCILLRADLPCKYHGA | < -0.25
88 | LCMVINVTQMGRQWEAVRAI | < -0.25
89 | QWCLRHNVASIGWIRCGICG | < -0.25
90 | GPCWVLRFGVGRR | < -0.25
91 | CNPKASQVSSEAREHVNIGG | < -0.25
92 | IRRIRVVTAEHGTTFSA | < -0.25
93 | VNEIICPR | < -0.25
94 | KKIGIVDREGAPHAVP | < -0.25
95 | VRVPRYFRVDYTTL | 0.0603
96 | SRNGRSRVH | < -0.25
97 | RSI | < -0.25
98 | DVFSTIYQFRGVPNVGKVHW | < -0.25
99 | QTKERAGPQGVRCRCAQPAG | < -0.25
100 | VIRGYTVPTDLR | < -0.25

Laid out differently: results already given
Row	Substance	growth estimate
86	SGGPVKHTVGRIDE	< -0.25
87	CRLSSCILLRADLPCKYHGA	< -0.25

(list continues)

Row | Substance | growth estimate
101 | SLLLLQSGAVGNYRTLPMDN | < -0.25
102 | RCRLRDGSRQLLLAS | < -0.25
103 | APHMRLIAIQVFCAET | < -0.25
104 | LEKYSSLYVHLTSYWLRV | < -0.25
105 | HEDSLKLRSGFPAD | < -0.25
106 | WVSEILGITEQAVAPCP | < -0.25
107 | PRTTIPTVHGGLELRTQTNA | < -0.25
108 | RPLQ | < -0.25
109 | IPEDLRLIHM | -0.239
110 | RARMVGLRRYK | < -0.25
111 | GISPILLW | < -0.25
112 | RTYEIPRRRYGEGDPGLVAS | < -0.25
113 | PRQSCSAASDYLGRSRTKGG | < -0.25
114 | MLGGRLKEPLAKYRQLRASG | < -0.25
115 | DETYFFGRLA | < -0.25
116 | VPVLETSYGHIIRFA | < -0.25
117 | RRVGFAPGVAGVRFLGCDQK | < -0.25
118 | RNRTPVCNIRSVSLSIFVAR | < -0.25
119 | ECYSTTKVQRHVTRRPRIST | -0.241
120 | ARLF | < -0.25
121 | YRSKADYHAEEYEVKLSAQC | < -0.25
122 | SRVRLRGAFASCSDTQWMRT | < -0.25
123 | IPPCSVSFHGMGPLL | < -0.25
124 | QTEGAFSDIYFEQAFSHRVS | < -0.25
125 | PGVPWRWQIVSS | < -0.25

Row | Substance | growth estimate
126 | KSEAPLR | < -0.25
127 | DEAYVHRCWLCPGMEERYLC | < -0.25
128 | FASISLGSTLP | < -0.25
129 | NTVRGGRGLVPGWSNVGLEM | < -0.25
130 | IRLGRGFRKVYWHARPIHRK | < -0.25
131 | AILGKPLPQQANQSPFLLPV | < -0.25
132 | PSSIRDPDSGWLHPLTGKPS | < -0.25
133 | KLFDRHRFA | < -0.25
134 | LCDQVSAI | < -0.25
135 | VGDLVGL | < -0.25
136 | TLTSALSMVLTLGGL | < -0.25
137 | PMG | < -0.25
138 | SATRKVEHIAR | < -0.25
139 | ESGVDSRGWSCNWRNSSS | -0.112
140 | HVTYPGDGNNVHREGSKAKA | < -0.25
141 | YPRLYDSLTPII | < -0.25
142 | CEGARFRDKPHVHQHLYDCL | < -0.25
143 | VGCVAQVAGGMQRAIYHSLQ | < -0.25
144 | LLDRSMDFP | < -0.25
145 | LSTHLECLQCQGSPHPPDAP | < -0.25
146 | NPLLRSLSPNTPVLPFKVCS | < -0.25
147 | LDVETSIK | < -0.25
148 | GVSDLCWELCVPLIASSAVM | < -0.25
149 | GCYRLSLTW | < -0.25
150 | PLLGLHWSKGLSVLWQ | -0.101

Row | Substance | growth estimate
151 | TYWTTRYSHLAFV | < -0.25
152 | LSLVSESYQAHEPLLRSLQP | < -0.25
153 | VGCHYGQKPYLSNIERRQGV | < -0.25
154 | GRD | < -0.25
155 | VRPSPGLI | < -0.25
156 | PTWVCMCKAIHMNTHRELAV | < -0.25
157 | LHRASLA | < -0.25
158 | EVGASQLKTTRIRVDNIVCL | < -0.25
159 | TFVGRNIGAGGSPTQRGN | < -0.25
160 | CGSVKSTPSDTTSCGVQAAP | < -0.25
161 | FSFPP | < -0.25
162 | DLFSLHFRT | < -0.25
163 | IAQQGDDFLERVGWPGPGCA | < -0.25
164 | VQETGSTSLGHAAGLLVTRN | < -0.25
165 | GRIRM | < -0.25
166 | RSSRENGIESFTIRQSWARL | < -0.25
167 | YIAEYICITGPRSEPRLRRS | < -0.25
168 | RAARSPRHLDISCTTGRVTG | < -0.25
169 | FHEGL | < -0.25
170 | LGLRVGDLLNQFNRRAGRNQ | < -0.25
171 | VRRRNHKARVVLKR | < -0.25
172 | RYW | < -0.25
173 | CAYLYHSVRYRIRGNLRVGL | < -0.25
174 | QCKKGVARDAKEHSIFIFAP | < -0.25
175 | ITLVIVKLGCLERRISIGRT | < -0.25

Looked up one by one from the list above:
Row | Substance | growth estimate
27 | RLTIMEESRR | < -0.25
131 | AILGKPLPQQANQSPFLLPV | < -0.25
65 | RYQGSWRFTRVLAVK | < -0.25
62 | TQRGTGHAPMGWRDYTWYDE | 0.183
52 | SRRG | -0.243
102 | RCRLRDGSRQLLLAS | < -0.25

Next part.

Row | Substance | growth estimate
176 | KKIVNSI | < -0.25
177 | FKV | < -0.25
178 | RNDSEGEHLPATGSSWGNLV | < -0.25
179 | CTWDTEAPRFVRVSRKANQL | < -0.25
180 | PEGGCLALALIRCGLSLLRH | < -0.25
181 | RYASAGSRSNSYSNRRRLDL | < -0.25
182 | INASMGRRQGLCGVCQVPGE | < -0.25
183 | PSLSSSCV | < -0.25
184 | RAKFGIRTAISDEGWTAQNS | < -0.25
185 | YRGVRIY | < -0.25
186 | GNRIRTLFRYERAVLAFVPQ | < -0.25
187 | YIRLI | < -0.25
188 | RWDLLMIPEKREKRVVLSSV | < -0.25
189 | HRVPMRGFASRFENWTGVAW | < -0.25
190 | QEGAGQLVTIQLPRDHGKTS | -0.246
191 | LLFIAQYRMA | < -0.25
192 | PLLG | < -0.25
193 | VKRGTKPRSDLMRTFSQLTW | < -0.25
